Test results taken from US20040235717A1, “Suppression of androgen receptor transactivation through new pathways to ar and ar coactivators and repressors” (priority 2001, published 2004).
Entries after “also recorded” stand apart in the source; their conditions may differ. At least one structure is not confirmed: it was looked up by name or label, or the drawing left a doubt.

Experiments:
AR transactivation [1] = experiment: AR transactivation, MMTV-luc / (ARE)4-luc luciferase reporter assay; type: cell-based; conditions: LNCaP; MMTV-luc and (ARE)4-luc; 10 nM DHT
AR transactivation [2] = experiment: AR transactivation, MMTV-CAT reporter in DU145 cells transfected with AR; type: cell-based, human
Excerpt: 250. To dissect the divergent effects of IL-6 in prostate tumor growth, Qui, Y. et al., Nature 393, 83-85 (1998); Hobisch, A. et al., Cancer Res. 58, 4640-4645 (1998); Ritchie, C. K. et al., Endocrinology 138, 1145-1150 (1997), the potential influences of IL-6 on the transactivation of AR, the master regulator of the prostate tumor growth were studied. Chang, C. et al., Science 240, 324.326 (1988); Chang, C. et al., Crit. Rev. Eukaryotic Gene Expression 5, 97-125 (1995). Because IL-6 has two major signal cascades, mitogen-activated protein kinase (MAPK) and phosphatidylinositol 3-kinase (PI3K), Qui, Y. et al., Nature 393, 83-85 (1998); Qui, Y. et al., Proc. Natl. Acad. Sci. USA 95, 3644-3649 (1998), inhibitors were applied to specifically block one of these two IL-6 signal pathways. DU145 cells were transfected for 24 h with AR and MMTV-CAT reporter gene. After transfection, the cells were serum starved for 24 h. Next, 20 μM LY294002, P098059 or vehicle was added to serum-free medium 30 min prior to IL-6 treatment. […] The cells were then harvested and AR transactivation was measured by CAT activity. […] Vlahos, C. J. et al., J. Biol. Chem. 269, 5241-5148 (1994). […] Alessi, D. R. et al., J. Biol. Chem. 270, 27489-27494 (1995).
(§1) 251. IL-6's effect on PI3K activity was tested. After serum starvation for 24 h, LNCaP, PC-3 or DU145 cells were treated with 50 μg/ml IL-6 for 30 minutes. The cells were then harvested. PI3K activity was measured by using phosphatidylinositol (PT) as a substrate. […] The transactivation was measured by CAT activity.
252. Focus then turned to the two major downstream effectors of PI3K: a serine/threonine kinase (Akt/PKB) and a ribosomal S6 kinase (p70S6k). Franke, T. F. et al., Cell 88,435-437 (1997). […] The transactivation activity was determined after 24 h transfection.
262. The DU145 and PC-3 cells were maintained in Dulbecco's Minimum Essential Medium (DMEM) containing penicillin (25 μg/m1), streptomycin (25 μg/ml), and 5% fetal calf serum (FCS). The LNCaP cells were maintained in RPMI-1640 with 10% FCS. […]

PSA mRNA expression = PSA mRNA expression in LNCaP cells, Northern blot; type: cell-based; conditions: presence of androgen
LNCaP cells = experiment: DHT/TPA-induced apoptosis in LNCaP cells, TUNEL assay; type: cell-based; conditions: 20 μM LY294002
Procedure: 18. […] (A) Akt suppressed androgen/AR-induced p21 promoter activity. […] (B) Androgen/AR-induced PC-3(AR)6 apoptosis and p21 protein expression was blocked by Akt PC-3(AR)6 was transfected with pCDNA3, cAkt, or dAkt, as indicated, for 16 h. […] (C) AR-induced p21 protein expression was enhanced by dAkt in LNCaP cells. […] LNCaP stable transfection with dAkt was confirmed by western blot assay using phospho-Akt (Ser473) antibody. […] TPA was then added for another 24 h and cell apoptosis was determined by TUNEL assay. […] IGF-1 was added for another 30 min, followed by 10 nM TPA treatment for another 24 h. The apoptosis was determined by TUNEL assay. The data are means±s.d. from three independent experiments.
281. The TUNEL assay was performed to measure the cell apoptosis according to the standard procedures (Oncogene Research Products). At least 200 cells were scored for each sample and the data are means±s.d. from three independent experiments.

AR protein stability = experiment: Pulse-chase labeling of AR in COS-1 cells; type: cell-based; conditions: LY294002 20 μM
Procedure: 30. […] The cells were harvested for Western blot analysis. […] Western blot analysis was performed and AR and PTEN were detected by AR antibody or PTEN antibody. (C) PTEN-C1 cells were treated with 4 μg/ml Dox in 10% CDS media for 48 h. Total RNA was prepared and Northern blot analysis was performed using [^32P]-dCTP-labeled AR (aa, 1-389) as a probe. (D) COS-1 cells were transfected with AR along with pCDNA3 or PTEN in 10% CDS media for 16 h. […] The cell extracts were immunoprecipitated with AR antibody and subjected to SDS-PAGE followed by autoradiography. Data were from three identical results. (E) COS-1 cells were transfected with AR along with pCDNA3 or dAkt in 10% CDS media for 16 h, pulsed with [^35S]-methionine for 45 min, and then harvested at different chase times as indicated. LY294002 (20 μM) was added 2 h before pulsing with [^35S]-methionine.
317. Pulse-chase experiments were performed as described (Lo et al. (1999) Nat Cell Biol 1, 472-8) with some modifications. Briefly, COS-1 cells were transfected with pSG5-AR in combination with pCDNA3 or pCDNA3 PTEN in 10% CDS media for […]. Cells were grown under serum starvation conditions for 2 h in methionine/cysteine-deficient medium, and then the cells were pulsed for 45 min with 200 μCi/ml [^35S]-methionine/cysteine (NEN). […]

PI3K = PI3K activity assay using phosphatidylinositol as substrate; type: cell-based, human; conditions: LNCaP, PC-3, DU145 cells
Procedure: as §1
260. […] PI3K activity was measured using PI as a substrate.
265. PI3K activity was determined as previously described. Vlahos, C. J. et al, J. Biol. Chem. 269, 5241-5148 (1994).

In the case of `O=c1cc(N2CCOCC2)oc2c(-c3ccccc3)cccc12` [LY294002, reference compound], the “Effect on AR transactivation” value (AR transactivation [1]) is reported as “enhanced AR transactivation in both MMTV-Luc and (ARE)4-Luc”, the “Effect on DHT-induced AR transactivation (CAT activity)” value (AR transactivation [2]; DU145, presence of androgen) is reported as “enhancement of AR transactivation; also recorded: more potent effect on AR transactivation than Δp85 and dAkt” and the “Effect on AR transactivation enhanced by coactivators ARA70, ARA54, TIF2 or SRC-1” value (AR transactivation [2]; MMTV-CAT reporter) is reported as “further promoted; also recorded: further enhanced”. The “Effect on androgen-induced PSA mRNA expression” value (PSA mRNA expression) was “slightly enhance PSA mRNA”, the “Effect on IGF-1 suppression of DHT/TPA-induced apoptosis” value (LNCaP cells) was “reverse this IGF-1 suppression” and the AR degradation (AR protein stability) was “did not promote AR degradation”. For the same compound, the “Effect on IL-6 increase in PI3K activity” value (PI3K) was “repressed”.
